Results as given in publication PMC10657434, “Architecture of the baculovirus nucleocapsid revealed by cryo-EM” (Nature Communications, 2023).

Target: T1, AC101 (BV/ODV-C42) (Autographa californica multiple nucleopolyhedrovirus (AcMNPV)) (UniProt P25695)
T1 sequence: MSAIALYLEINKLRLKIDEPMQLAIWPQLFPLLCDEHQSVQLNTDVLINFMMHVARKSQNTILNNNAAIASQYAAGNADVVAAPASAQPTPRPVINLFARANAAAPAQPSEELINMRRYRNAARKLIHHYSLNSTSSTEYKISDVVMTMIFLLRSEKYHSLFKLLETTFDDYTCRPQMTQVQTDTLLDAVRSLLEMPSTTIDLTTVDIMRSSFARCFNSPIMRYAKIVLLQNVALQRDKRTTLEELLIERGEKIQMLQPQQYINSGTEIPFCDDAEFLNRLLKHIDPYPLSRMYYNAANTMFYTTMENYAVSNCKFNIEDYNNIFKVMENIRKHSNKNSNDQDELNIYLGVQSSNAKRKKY
Test: cryo-EM structure; head and base of native AcMNPV ODV nucleocapsids; local refinement 4.3 Å (elements common to both ends), 4.8 Å (base with AC98), 4.9 Å (plug); AlphaFold2 models docked into density and refined; partners co-purified as the native nucleocapsid; both purified

AC109 was tested, and the binding was “binds”.

Results are given in words; binding and its absence hold for the method and conditions named. Binding seen in cells or lysates may run through a third protein. Binding can be weak; no strength is given.
